Test results published in the supplement of paper PMC3334620.
Whole data set: some 33,000 sequences, median “E-score (-0.5 to 0.5)” near -0.015, cut for the highest 2% near 0.3. The list shows a part of the results.

target: T1, Abf1 (UniProt P14164); assay: PBM E-score (8-mer binding enrichment) (E-score (-0.5 to 0.5)); higher = stronger / more preferred TF binding; settings: protein concentration: 200 nM; construct: GST-full length
T1 sequence: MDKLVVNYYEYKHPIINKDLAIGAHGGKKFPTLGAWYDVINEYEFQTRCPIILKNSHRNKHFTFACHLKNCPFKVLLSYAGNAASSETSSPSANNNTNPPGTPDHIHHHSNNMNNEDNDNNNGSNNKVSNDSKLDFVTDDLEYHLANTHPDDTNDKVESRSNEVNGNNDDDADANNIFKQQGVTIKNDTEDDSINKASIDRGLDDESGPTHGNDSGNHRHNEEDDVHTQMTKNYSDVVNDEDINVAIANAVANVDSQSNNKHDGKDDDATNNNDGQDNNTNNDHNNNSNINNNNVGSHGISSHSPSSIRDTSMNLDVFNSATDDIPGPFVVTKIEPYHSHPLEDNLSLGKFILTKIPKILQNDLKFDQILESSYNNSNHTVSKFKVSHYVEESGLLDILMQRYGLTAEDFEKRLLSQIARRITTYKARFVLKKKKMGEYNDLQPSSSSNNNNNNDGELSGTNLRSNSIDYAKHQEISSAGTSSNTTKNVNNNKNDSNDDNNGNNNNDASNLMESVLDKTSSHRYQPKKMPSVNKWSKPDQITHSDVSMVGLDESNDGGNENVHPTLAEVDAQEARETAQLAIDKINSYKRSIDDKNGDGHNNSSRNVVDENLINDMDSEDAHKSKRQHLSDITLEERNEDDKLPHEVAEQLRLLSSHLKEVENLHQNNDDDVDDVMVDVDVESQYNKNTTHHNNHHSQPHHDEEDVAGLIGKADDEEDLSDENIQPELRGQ
Procedure: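 Universal 'all 10-mer' protein binding microarrays (Agilent AMADID 015681) probed with GST-tagged S. cerevisiae TFs (full-length or DBD) made by in vitro transcription/translation (PURExpress), about 100-200 nM. Bound TF was detected with fluorescent anti-GST. Each ungapped 8-mer (which stands for itself and its reverse complement) is scored by the PBM enrichment score (E-score), a modified Wilcoxon-Mann-Whitney statistic from -0.5 to +0.5, computed with the Universal PBM Analysis Suite. Scale: above 0.35 generally sequence-specific binding.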

Sequence | PBM E-score
GGTCTCAC | 0.111
ATGGTACG | 0.035
CCCACGGA | 0.0844
AGATTAAT | 0.105
AAGGGTGT | -0.191
AATTCGTG | 0.224
ATGCACAC | 0.239
CGAACTTC | 0.0195
CAAAGCGA | 0.0628
CCTTGCTC | -0.316
CATGATAG | 0.0986
CAGCCTGC | -0.204
CTAAGCGC | -0.121
CCGTTCCG | 0.04
CGATGTAC | 0.184
ACAAGCAA | 0.0194
AAGGACGG | -0.183
GAATAATC | 0.193
CTCGGACC | 0.0621
GTCTACAA | 0.0458
AGACCCAG | -0.29
ACCCGCCA | -0.158
ACCCCAGA | -0.248
AGCTGCCG | -0.0478
GTCTGAAA | 0.158

Sequence | PBM E-score
AACCGTAA | -0.0111
CAGATTAA | 0.24
AAAACAAG | 0.0429
CGTGCGAG | 0.137
AAAGTCAG | 0.0858
CGCATTAG | -0.0276
CTTACGAC | 0.103
ACGCGTAC | 0.108
GATACGCC | -0.0576
CAAACTGC | 0.0816
CAGTGTGG | -0.119
AGCACGTA | -0.173
GCCCCTAA | -0.289
CTCTACGC | -0.216
CAGCCTAC | -0.0347
CGCGGGCA | -0.0544
CCTCGCCG | -0.264
AAGCGCTA | 0.0756
AAGCGTAT | -0.0642
AATTAACT | 0.248
ACGGGCGC | 0.186
CAAGTATC | 0.0524
ACATCGCA | 0.204
GCTTCGTA | 0.313
CATCAGGC | -0.0701

Sequence | PBM E-score
ATATGCTG | -0.0426
CAAGATGC | 0.148
GCAATACA | -0.0924
GCCCGTTA | -0.222
CCCCCATA | -0.28
AGTCACTA | 0.315
ACGAGGTG | 0.185
ATAAAATC | 0.182
ATCGTTAC | 0.065
GCCCGAGC | -0.0863
TCACATAA | 0.22
ACAATGTA | -0.00324
GAGAGTAA | -0.00292
ATAGGTTG | -0.183
ACCACGCT | -0.0224
ACAGTTAT | 0.0217
AGCTAGCA | -0.00139
AGGTCGGG | -0.28
GCAGAAGC | -0.0737
GACGCTCA | 0.0668
AGTTTAAA | 0.105
AGATGTTG | -0.03
ATGAGGGA | -0.139
GACCCCAA | -0.136
AGCCAGGG | -0.156

Sequence | PBM E-score
ACTGGATG | -0.0266
AATGCAGT | -0.0778
CCATGTGC | -0.0552
CCTGCGAC | -0.0961
CAGCAGCG | -0.00598
CCACACCG | 0.00453
AGCCTCTC | -0.267
AGATAAAC | 0.155
CAGTCCAG | -0.235
CGTAAGCA | -0.218
CTTGGGGC | -0.247
CGGGCCAG | -0.212
GGCCCAAA | -0.262
AAGACATG | -0.0258
CAGCGCAA | -0.105
ATCATGAA | 0.121
GAATGTGC | 0.15
ACTGGACC | -0.149
ATTGAGCC | 0.0551
CAGTCTCC | -0.123
CATAAAGG | -0.12
CAGTTTGC | -0.0252
CCTCCTAA | -0.109
ATAAAAAC | 0.277
CACCAGGC | -0.066

Sequence | PBM E-score
GATAGACC | 0.0194
CACCTAAG | 0.0751
TAAGTAGA | 0.133
TATAAGGA | 0.0273
CACCGATA | 0.0799
ATCTCAGA | 0.0428
CCCTTCAG | -0.197
AGTTATGG | -0.0478
GATGTACC | 0.136
GAAGCCCA | -0.161
AACCGGGC | -0.103
GACTACGA | 0.128
ATGATGCC | 0.0807
ATTCACGC | 0.00975
TATGGTCA | 0.216
CCGGCAGG | -0.234
CCTTTGAG | -0.0864
CTCATATC | -0.0957
AGCTGTAA | -0.105
CCGGTGCA | -0.121
CGTCGCAA | 0.203
CGTCGGCA | 0.0993
CCCTGCGA | -0.0803
CCTACCAA | 0.162
AGGGTGCA | -0.172

Three entries from above, as tab-separated lines:
Sequence	PBM E-score
AAGGGTGT	-0.191
AGGTCGGG	-0.28
AGATGTTG	-0.03

(further entries)

Sequence | PBM E-score
CGGCGTGA | -0.168
CTTTCTGA | 0.08
AACTTGAA | -0.0376
AATCCGCT | -0.131
GCACAGGA | -0.126
GTCAAAGA | 0.0864
AAATCACC | 0.336
GGATATAC | -0.053
CATTCCGC | -0.213
ATAGACAG | -0.0601
TACGTAGA | 0.138
ACAGCTCA | -0.0214
AAGTATTC | 0.012
AGAGTGCT | -0.0358
CTCGGTTC | -0.0328
CGGCGTTA | -0.0175
ATCATAAT | 0.217
AACGCCTT | -0.142
CAGCTCAA | 0.00284
ATTTGGCC | -0.148
ACTGCCCA | -0.0787
CGTGAAAG | 0.29
ATTATCCC | 0.17
ATGCGCAA | -0.131
ACCAGCTA | 0.131

Pulled one by one from the entries so far:
Sequence | PBM E-score
ATCATAAT | 0.217
ATTATCCC | 0.17
CATTCCGC | -0.213
CAGCTCAA | 0.00284
GCACAGGA | -0.126
AAATCACC | 0.336
ATAGACAG | -0.0601

Continued:

Sequence | PBM E-score
TGCAAGCA | -0.0425
CGTCATTC | 0.288
AGATGATC | 0.176
GTCTGCGA | -0.0886
AGTCGTCG | 0.00151
CCATAGGG | -0.1
CTAAGTGC | -0.0207
CATGCCTC | 0.0707
CATGCTCA | -0.0836
AGCCTTCG | -0.214
AGAGGGTG | -0.0758
GCCGCGTA | -0.0622
AGTAGGCC | -0.134
AACTGGTC | -0.0107
CTAGCGGC | -0.271
GTAGCTAA | 0.0111
CAGGCAGA | -0.144
GAAGCGAC | 0.185
AAGCCTAT | -0.125
ATCGTGGA | 0.165
CGAGGATA | 0.0582
AAAGGCGT | -0.159
